Values of other authors as cited in US6166008A, “Treatment of schizophrenia with ampakines and neuroleptics” (Cortex Pharmaceuticals, Inc., priority 1998, dated 2000).
At least one compound was matched to its structure with a doubt left.

Tests used:
NMDA receptor = details: hippocampus; cited from earlier work
[1] = tested on: γ-aminobutyric acid (GABA) receptors; details: Xenopus oocytes; Ito et al.; cited from earlier work
[2] = tested on: fast synaptic potentials in hippocampus; details: cited from earlier work
[3] = tested on: kainic acid (KA) receptors; details: Xenopus oocytes; Ito et al.; cited from earlier work
AMPA receptor channel = details: Tang et al.; cited from earlier work
NMDA receptors = details: Xenopus oocytes; Ito et al.; cited from earlier work
AMPA receptors = details: Xenopus oocytes; Ito et al.; cited from earlier work

## COc1ccc(C(=O)N2CCCC2=O)cc1 [aniracetam, N-anisoyl-2-pyrrolidinone]
NMDA receptor
  effect on NMDA-receptor mediated potentials: no effect on NMDA-receptor mediated potentials
[1]
  effect on GABA responses: without affecting responses
[2]
  concentration at which the drug works: ~ 1.0 mM
  onset and washout: extremely rapid onset and washout
[2]; hippocampal slices
  effect on resting membrane properties: without altering resting membrane properties
  effect on size of fast synaptic potentials / synaptic responses: substantially increase the size of fast synaptic potentials
[3]
  effect on KA responses: without affecting responses
AMPA receptor channel
  effect on amplitude of the synaptic current: increases the amplitude of the synaptic current
  effect on duration of the synaptic current: prolongs its duration
  effect on mean open time of the AMPA receptor channel: increases the mean open time of the AMPA receptor channel
NMDA receptors
  effect on NMDA responses: without affecting responses
AMPA receptors
  effect on currents mediated by brain AMPA receptors: increases currents mediated by brain AMPA receptors
